PubChem BioAssay AID2685 (National Center for Advancing Translational Sciences (NCATS), 2010)
The list shows a part of the results. The main result of the screen is listed elsewhere. These columns were measured beside it and carry no call. Compounds called inactive in the main read-out are mostly missing here. Words in brackets tell the shape of the fitted curve; partial curves, single points and poor fits give uncertain potencies.

Test: qHTS Assay for Lipid Storage Modulators in Drosophila S3 Cells;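 as to cell number change: cells counted by Cell Tracker Red CMTPX staining in the red channel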
Settings: BODIPY lipid droplet fluorescence, 18-24 h; for cell number change: measured here: cell count max response, cells fed with added oleic acid
In short: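 Laser-scanning cytometry quantifies lipid droplet accumulation (500–530 nm total intensity; droplet/cell object ratio) in oleic acid-fed (400 uM added) Drosophila S3 cells treated with a concentration series. 20 uM Triacsin C defined 100% inhibition.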

[1] = measured here: cell number channel AC50, cells fed with added oleic acid
[2] = measured here: lipid fluorescence (Fed channel) AC50, cells fed with added oleic acid

| Compound | AC50 [1] | cell number change [%] | AC50 [2] |
| --- | --- | --- | --- |
| NC(=O)c1ccccc1OCC(=O)NS(=O)(=O)c1ccccc1 | 0.651 µM [falling, full curve, poor fit] |  |  |
| Cc1ccc2nc(NCCO)nc(-c3ccccc3)c2c1 | 8.2 µM [rising, partial curve] | 37.4 | 11.6 µM [rising, partial curve] |
| COCCn1c(N)c(Sc2ccc([N+](=O)[O-])cc2)c(=O)[nH]c1=O |  | 16.4 |  |
| COc1ccc(CNC(=O)c2ccc3ccccc3n2)cc1 |  | 13.2 | 9.2 µM [rising, partial curve] |
| COCCN(C(=O)c1snc(C(N)=O)c1N)C(C(=O)NC1CCCCC1)c1cc(OC)c(OC)c(OC)c1 (stereo not drawn) |  | 12.9 | 6.51 µM [falling, single point] |
| COc1cccc(CNc2ccc(S(N)(=O)=O)cc2)c1OCc1ccccc1F |  | 26 | 16.4 µM [rising, single point] |
| O=C1CC(C(=O)Nc2ccccc2)N=C(N2CCCCC2)N1 (stereo not drawn) |  |  | 5.8 µM [falling, partial curve] |
| Cc1cc(Cl)ccc1C1=CC(=O)C[C@H](c2ccc(F)cc2)C1 |  | 14.3 | 0.731 µM [rising, full curve] |
| COc1ccc(C(=O)NCCCN=C2NS(=O)(=O)c3ccccc32)cc1 |  | -27 | 23.1 µM [falling, single point] |
| O=C(CNC(=O)c1ccc(Br)o1)NCC1CCCCC1 |  | 14.7 | 0.116 µM [rising, full curve, poor fit] |
| CCCCN1C(=O)/C(=C2/Sc3ccc(Cl)cc3N2CC)SC1=S |  | 14.6 | 29.1 µM [rising, partial curve, poor fit] |
| CC(=O)N1C(=O)NC2=C(C(=O)CCC2)C1c1cccc([N+](=O)[O-])c1 (stereo not drawn) |  | -11.3 | 16.4 µM [falling, partial curve] |
| O=C(CSc1nnc(-c2cccnc2)o1)N1CCCCC1 |  | 11.7 |  |
| CC(C)CN(CC(C)C)S(=O)(=O)N1CCC(C(=O)NC2CCCCCCC2)CC1 |  | 1.01 | 2.31 µM [rising, single point] |
| COc1ccc(CN2C(=O)C(CC(C)C)Nc3ncnc(N4CCN(c5ccccn5)CC4)c32)cc1 (stereo not drawn) |  | -15.6 | 23.1 µM [falling, single point] |
| CCN(CC)C(=O)c1cccc(NC(=O)c2cc(-c3ccccn3)nc3ccccc23)c1 | 3.66 µM [rising, partial curve, poor fit] | 2.02 | 1.84 µM [rising, partial curve] |
| Cc1cc(C(=O)CSc2nnc(-c3ccccc3F)o2)c(C)n1Cc1cccs1 | 20.6 µM [rising, single point] | 55.7 |  |
| CC1=NN(c2ccc(C)cc2C)C(=O)C1C(c1ccccc1)C1C(=O)N(c2ccc(C)cc2C)N=C1C (stereo not drawn) |  | 127 |  |
| O=C(COc1ccc(-n2ccnc2)cc1)Nc1cccc(Cl)c1 | 29.1 µM [rising, single point] | 52.5 | 20.6 µM [rising, single point] |
| CCN1CSC(=S)N(Cc2ccccc2)C1 |  | -22.2 | 5.17 µM [falling, full curve] |

Individual results from above.
For cell number change [%], O=C(CSc1nnc(-c2cccnc2)o1)N1CCCCC1 is listed with 11.7
For AC50 [2], CCN1CSC(=S)N(Cc2ccccc2)C1 is listed with 5.17 µM [falling, full curve]

Later entries:

| Compound | AC50 [1] | cell number change [%] | AC50 [2] |
| --- | --- | --- | --- |
| C=CCc1cc(OC)ccc1OCCOCCN1CCc2ccccc2C1 |  | -22.8 |  |
| CCOC(=O)C1CCCN(C(=O)N2CCOCC2)C1 (stereo not drawn) |  |  | 6.51 µM [rising, single point] |
| CC1CN(C(=O)c2cccs2)CCN1C(=O)c1cccs1 (stereo not drawn) |  | 0.0701 |  |
| CCOC(=O)c1c(CN2CCOCC2)n(-c2ccccc2)c2cc(Br)c(O)cc12 |  | -7.14 | 0.651 µM [falling, full curve] |
| O=C(c1cnsn1)N1CCCC(Nc2ccc(F)c(F)c2)C1 (stereo not drawn) |  | -10.1 |  |
| CCC(C)[C@H](NC(=O)Nc1cccc(Cl)c1)C(=O)O (stereo partly drawn) | 29.1 µM [falling, single point] | -92.9 | 29.1 µM [falling, partial curve] |
| O=C(CC1C=Cc2ccccc2N1C(=O)c1ccccc1)c1ccccc1 (stereo not drawn) |  | -10 | 0.58 µM [falling, single point] |
| COCC(=O)N(Cc1ccco1)c1nnc(C2CCOC2)s1 (stereo not drawn) | 6.51 µM [falling, full curve] | -110 | 29.1 µM [falling, single point] |
| CN(C)C(=O)CN(C)S(=O)(=O)c1ccc(Cl)cc1 |  | -26.1 | 0.00461 µM [rising, full curve, poor fit] |
| CC(CC(=O)Nc1nc2ccccc2[nH]1)n1ccnc1 (stereo not drawn) |  | -30.9 | 3.66 µM [rising, partial curve, poor fit] |
| O=C(CCn1c(=O)oc2ccccc21)NCc1ccco1 |  | 3.46 | 16.4 µM [falling, partial curve, poor fit] |
| Cc1nc(-c2ccc(S(=O)(=O)Nc3ccc(Br)cc3Cl)s2)cs1 |  |  | 18.4 µM [rising, single point] |
| CC(C)N(CCCNC(=O)c1nn(C)c2c1CS(=O)(=O)c1ccccc1-2)Cc1ccccc1 |  |  | 29.1 µM [rising, partial curve, poor fit] |
| CC(C)C(C(=O)O)N1C(=O)/C(=C/C=C/c2ccco2)SC1=S (stereo not drawn) |  | -22.7 |  |
| COc1cccc(-n2c(CCn3nc(C)c([N+](=O)[O-])c3C)n[nH]c2=S)c1 |  | 2.97 | 6.51 µM [falling, single point] |
| CCOc1ccccc1N(CC(=O)Nc1ccccc1C(=O)O)S(C)(=O)=O | 0.13 µM [falling, full curve, poor fit] | -26 | 0.731 µM [falling, full curve] |
| CCOC(=O)CC1CCCCN1C(=O)CCCn1nnnc1CN1CCC(C)CC1 (stereo not drawn) |  | -17.7 | 29.1 µM [falling, single point] |
| O=C(CCC(=O)Nc1ccccc1)N/N=C/C=C/c1ccccc1 |  | -5.3 | 0.731 µM [falling, single point] |
| COc1ccc2c(COC(=O)CCS(=O)(=O)c3ccccc3)cc(=O)oc2c1 |  | 12.8 |  |
| O=C(NCCCN1CCCC1=O)c1nnc(Cc2c(F)cccc2Cl)o1 |  | -29.1 | 14.6 µM [falling, partial curve] |
